According to the supplement of paper PMC12024529:
Structures can show the parent of a compound that is named as a salt. Some of the results follow. Baselines shift from plate to plate; read single values as rough.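 HEK293 lines stably express B-domain-deleted factor VIII fused to Gaussia luciferase, wild type or a misfolding-prone missense mutant. Scores equal triplicate-well mean luminescence minus DMSO mean, divided by DMSO standard deviation; scores of 2 or higher are hits. Low scores may indicate reduced secretion or worse cell viability.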

Test system: HEK293 p.N1941S BDD-FVIII-Gluc
Test: secreted FVIII-Gluc luciferase Z-score vs DMSO control; higher = more FVIII-Gluc secretion
Conditions: 5 µM; 24 h

Secreted FVIII-Gluc luciferase Z-score, active:
CC/C(=C(\c1ccccc1)c1ccc(OCCN(C)C)cc1)c1ccccc1 [Tamoxifen Citrate (Nolvadex)] 7.66
C[C@]12C=CC(=O)C=C1CC[C@@H]1[C@@H]2[C@@H](O)C[C@@]2(C)[C@H]1CC[C@]2(O)C(=O)CO [Prednisolone (Hydroretrocortine)] 5.82

Secreted FVIII-Gluc luciferase Z-score, inactive:
Cc1nnc(NS(=O)(=O)c2ccc(N)cc2)s1 [Sulfamethizole (Proklar)] -3.25
CCCCCCCCCCCC[N+](C)(C)CCOc1ccccc1 [Domiphen Bromide] 0.111
CN(C)CCCN1c2ccccc2CCc2ccccc21 [Imipramine HCl] -0.0789
Cc1c(O)cccc1C(=O)N[C@@H](CSc1ccccc1)[C@H](O)CN1C[C@H]2CCCC[C@H]2C[C@H]1C(=O)NC(C)(C)C [Nelfinavir Mesylate] -0.254
CCOC(=O)C1=C(C)NC(C)=C(C(=O)OCC)C1c1ccccc1/C=C/C(=O)OC(C)(C)C [Lacidipine (Lacipil, Motens)] -0.757
CN1C(CCl)Nc2cc(Cl)c(S(N)(=O)=O)cc2S1(=O)=O (configuration not stated) [Methyclothiazide] 0.994
COC(=O)C1=C(C)NC(C)=C(C(=O)OC(C)C)C1c1cccc2nonc12 (configuration not stated) [Isradipine (Dynacirc)] 0.125
Clc1ccccc1C(c1ccccc1)(c1ccccc1)n1ccnc1 [Clotrimazole (Canesten)] -1.4
CC(C)[C@H](N)C(=O)OCCOCn1cnc2c(=O)nc(N)[nH]c21 [Valaciclovir HCl] -1.36
NNC(=O)c1ccncc1 [Isoniazid (Tubizid)] 0.351
CC1(C)S[C@@H]2[C@H](NC(=O)C(C(=O)O)c3ccccc3)C(=O)N2[C@H]1C(=O)O (some centres not stated) [Carbenicillin disodium] -1.84
CO[C@H]1C[C@@H]2CC[C@@H](C)[C@@](O)(O2)C(=O)C(=O)N2CCCC[C@H]2C(=O)O[C@H]([C@H](C)C[C@@H]2CC[C@@H](O)[C@H](OC)C2)CC(=O)[C@H](C)/C=C(\C)[C@@H](O)[C@@H](OC)C(=O)[C@H](C)C[C@H](C)/C=C/C=C/C=C/1C [Rapamycin (Sirolimus)] -5.96
N=C(N)NC(=O)c1nc(Cl)c(N)nc1N [Amiloride hydrochloride (Midamor)] 1.26
CCCCNC(=O)NS(=O)(=O)c1ccc(C)cc1 [Tolbutamide] -0.418
CCOC(=O)c1ncn2c1CN(C)C(=O)c1cc(F)ccc1-2 [Flumazenil] 0.868
OC(CNCC(O)C1CCc2cc(F)ccc2O1)C1CCc2cc(F)ccc2O1 (configuration not stated) [Nebivolol (Bystolic)] -0.463
CCn1cc(C(=O)O)c(=O)c2cc(F)c(N3CCN(C)CC3)cc21 [Pefloxacin mesylate] -0.053
CCOc1cc(N)c(Cl)cc1C(=O)NCC1CN(Cc2ccc(F)cc2)CCO1 (configuration not stated) [Mosapride citrate] -1.48
N=C(N)Nc1ccc(C(=O)Oc2ccc3cc(C(=N)N)ccc3c2)cc1 [Nafamostat mesylate] 0.829
Nc1nc2c(ncn2COC(CO)CO)c(=O)[nH]1 [Ganciclovir] -3.86
CC(C)c1nc(CN(C)C(=O)N[C@@H](CCN2CCOCC2)C(=O)N[C@H](CC[C@H](Cc2ccccc2)NC(=O)OCc2cncs2)Cc2ccccc2)cs1 [Cobicistat (GS-9350)] -1.75
CC1(C)S[C@@H]2[C@H](NC(=O)Cc3ccccc3)C(=O)N2[C@H]1C(=O)O [Penicillin G Sodium] 1.09
CCc1cc(C(N)=S)ccn1 [Ethionamide] 0.375
CCC(C)(C)c1ccc(CC(C)CN2C[C@@H](C)O[C@@H](C)C2)cc1 (some centres not stated) [Amorolfine Hydrochloride] 0.801
COc1ccc(C(=O)CC(=O)c2ccc(C(C)(C)C)cc2)cc1 [Avobenzone (Parsol 1789)] -0.272

Part of the list above in order of SMILES length, falling.
Secreted FVIII-Gluc luciferase Z-score, inactive:
CC1(C)S[C@@H]2[C@H](NC(=O)C(C(=O)O)c3ccccc3)C(=O)N2[C@H]1C(=O)O (some centres not stated) [Carbenicillin disodium] -1.84
N=C(N)NC(=O)c1nc(Cl)c(N)nc1N [Amiloride hydrochloride (Midamor)] 1.26
NNC(=O)c1ccncc1 [Isoniazid (Tubizid)] 0.351
